We go through 4 molecules from paper PMC9701038.

Amino acid sequences for entries named in this document (tags omitted). Residues count along the entry.
UniProt Q13443, residues 29-819: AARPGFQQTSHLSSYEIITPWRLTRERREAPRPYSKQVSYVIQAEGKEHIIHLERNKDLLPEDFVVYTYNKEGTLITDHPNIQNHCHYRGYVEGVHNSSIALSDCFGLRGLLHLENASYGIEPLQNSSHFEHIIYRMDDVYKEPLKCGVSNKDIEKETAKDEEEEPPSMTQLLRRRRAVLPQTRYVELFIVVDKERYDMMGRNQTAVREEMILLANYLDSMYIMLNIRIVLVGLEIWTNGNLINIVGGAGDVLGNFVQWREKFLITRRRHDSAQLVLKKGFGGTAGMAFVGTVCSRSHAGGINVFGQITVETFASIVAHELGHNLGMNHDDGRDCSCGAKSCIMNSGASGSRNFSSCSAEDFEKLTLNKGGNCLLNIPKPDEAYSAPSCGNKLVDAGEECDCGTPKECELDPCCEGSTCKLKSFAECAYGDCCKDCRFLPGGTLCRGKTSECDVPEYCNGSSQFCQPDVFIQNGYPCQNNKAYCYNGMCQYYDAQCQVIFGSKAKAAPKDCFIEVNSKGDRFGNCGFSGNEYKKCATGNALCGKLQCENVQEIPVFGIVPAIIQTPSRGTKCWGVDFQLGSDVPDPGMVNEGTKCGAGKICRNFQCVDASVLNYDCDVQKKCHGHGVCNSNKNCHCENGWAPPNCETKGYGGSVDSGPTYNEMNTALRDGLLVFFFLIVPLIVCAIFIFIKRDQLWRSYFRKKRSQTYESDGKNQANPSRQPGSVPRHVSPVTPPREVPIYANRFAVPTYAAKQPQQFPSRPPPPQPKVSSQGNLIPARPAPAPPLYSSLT
UniProt Q9H5V8, residues 30-836: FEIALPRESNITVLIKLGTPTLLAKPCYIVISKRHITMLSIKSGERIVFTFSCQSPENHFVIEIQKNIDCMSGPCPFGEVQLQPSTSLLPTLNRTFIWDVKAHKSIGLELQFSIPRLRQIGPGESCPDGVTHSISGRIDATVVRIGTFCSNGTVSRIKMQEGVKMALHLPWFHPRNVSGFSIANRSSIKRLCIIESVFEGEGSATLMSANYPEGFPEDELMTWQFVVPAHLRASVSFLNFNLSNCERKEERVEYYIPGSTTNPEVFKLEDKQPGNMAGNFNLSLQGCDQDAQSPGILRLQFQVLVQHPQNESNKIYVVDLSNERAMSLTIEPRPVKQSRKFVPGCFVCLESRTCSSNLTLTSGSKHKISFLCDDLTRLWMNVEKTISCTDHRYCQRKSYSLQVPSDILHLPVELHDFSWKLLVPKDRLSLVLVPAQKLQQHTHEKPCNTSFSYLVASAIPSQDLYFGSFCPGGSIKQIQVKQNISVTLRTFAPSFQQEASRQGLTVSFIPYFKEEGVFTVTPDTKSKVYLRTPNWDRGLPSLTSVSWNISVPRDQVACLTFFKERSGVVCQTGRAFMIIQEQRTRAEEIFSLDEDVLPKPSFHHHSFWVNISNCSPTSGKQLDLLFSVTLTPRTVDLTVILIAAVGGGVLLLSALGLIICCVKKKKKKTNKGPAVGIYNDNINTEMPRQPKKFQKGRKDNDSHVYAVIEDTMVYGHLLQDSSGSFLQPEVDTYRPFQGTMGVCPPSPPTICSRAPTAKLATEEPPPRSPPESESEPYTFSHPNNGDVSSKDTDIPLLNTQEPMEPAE
UniProt Q71RC2: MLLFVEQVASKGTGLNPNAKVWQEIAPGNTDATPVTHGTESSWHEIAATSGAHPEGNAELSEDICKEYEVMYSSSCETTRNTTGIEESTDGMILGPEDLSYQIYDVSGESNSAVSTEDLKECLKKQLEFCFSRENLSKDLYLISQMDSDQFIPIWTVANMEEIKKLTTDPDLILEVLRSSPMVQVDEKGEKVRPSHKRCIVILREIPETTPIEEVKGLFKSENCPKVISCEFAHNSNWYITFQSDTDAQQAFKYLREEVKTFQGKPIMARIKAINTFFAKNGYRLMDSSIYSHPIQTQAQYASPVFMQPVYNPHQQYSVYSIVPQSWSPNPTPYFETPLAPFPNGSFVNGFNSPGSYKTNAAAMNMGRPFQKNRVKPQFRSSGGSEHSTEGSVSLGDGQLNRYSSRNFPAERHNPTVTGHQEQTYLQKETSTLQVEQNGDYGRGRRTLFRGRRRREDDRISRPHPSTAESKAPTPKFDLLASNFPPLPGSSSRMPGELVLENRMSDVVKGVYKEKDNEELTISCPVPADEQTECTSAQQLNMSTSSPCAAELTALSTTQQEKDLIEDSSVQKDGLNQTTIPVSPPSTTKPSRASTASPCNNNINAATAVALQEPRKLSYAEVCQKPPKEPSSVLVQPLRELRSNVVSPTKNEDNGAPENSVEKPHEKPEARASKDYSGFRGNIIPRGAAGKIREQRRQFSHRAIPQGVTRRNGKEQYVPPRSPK
UniProt Q92615: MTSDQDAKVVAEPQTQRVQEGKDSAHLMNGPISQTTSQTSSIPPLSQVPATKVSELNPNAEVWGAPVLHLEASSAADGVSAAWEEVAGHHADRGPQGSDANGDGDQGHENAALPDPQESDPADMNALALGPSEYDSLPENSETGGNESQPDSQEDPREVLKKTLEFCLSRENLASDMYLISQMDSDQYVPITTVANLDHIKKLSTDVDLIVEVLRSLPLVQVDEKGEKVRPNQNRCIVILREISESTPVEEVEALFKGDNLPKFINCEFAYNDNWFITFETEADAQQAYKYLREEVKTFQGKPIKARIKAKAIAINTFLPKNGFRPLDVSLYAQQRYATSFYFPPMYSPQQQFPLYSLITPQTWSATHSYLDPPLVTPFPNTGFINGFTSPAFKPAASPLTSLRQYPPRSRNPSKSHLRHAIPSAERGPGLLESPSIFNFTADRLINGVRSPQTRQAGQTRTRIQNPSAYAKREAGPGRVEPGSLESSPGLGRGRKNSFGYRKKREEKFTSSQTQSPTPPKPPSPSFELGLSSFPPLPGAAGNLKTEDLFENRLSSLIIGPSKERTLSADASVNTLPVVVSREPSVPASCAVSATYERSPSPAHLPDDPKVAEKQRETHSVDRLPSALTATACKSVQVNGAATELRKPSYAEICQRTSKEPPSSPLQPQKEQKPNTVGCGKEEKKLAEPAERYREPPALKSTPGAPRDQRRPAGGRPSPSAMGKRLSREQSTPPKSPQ

The target of assay [1] is ADAM9 (human (endogenous in PANC-1)) (UniProt Q13443). Kind of assay: affinity purification with mass spectrometry; IP-MS with an anti-ADAM9 antibody in PANC-1 cells treated with scrambled siRNA or with ADAM9 knocked down.
Assay [2] has as its target T1, BirA-HOGA1 (from pLVXyu-BirA-HOGA1) (human) (UniProt Q86XE5).
T1 sequence: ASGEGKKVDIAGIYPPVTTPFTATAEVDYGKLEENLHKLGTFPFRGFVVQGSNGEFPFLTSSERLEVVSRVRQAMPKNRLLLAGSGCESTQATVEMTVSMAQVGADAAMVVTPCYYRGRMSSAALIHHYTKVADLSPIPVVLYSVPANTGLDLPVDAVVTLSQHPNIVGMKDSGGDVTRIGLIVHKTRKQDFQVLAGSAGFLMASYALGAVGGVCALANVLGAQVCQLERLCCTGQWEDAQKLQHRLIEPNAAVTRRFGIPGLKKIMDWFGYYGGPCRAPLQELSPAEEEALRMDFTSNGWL
Description: proximity labelling; called tandem affinity purification by the paper; PANC-1 cells transfected with pLVXyu-BirA-HOGA1, biotin 50 uM; lysis in 0.1% NP40 buffer (50 mM Tris-HCl pH 7.5, 150 mM NaCl, 0.3% NONIDET P-40); lysate on SBP beads 3 h at 4 C; on-bead tryptic digestion, mass spectrometry.

Results are given in words; binding and its absence hold for the method and conditions named. Binding seen in cells or lysates may run through a third protein. Here binding means that the protein was enriched with, or labelled near, the bait; the list need not be complete.

Regarding CDCP1 (from UniProt Q9H5V8 30-836), the binding entry in assay [1] is “binds”.

Take LARP4 (from UniProt Q71RC2 1-724): the binding entry in assay [2] is “binds”.

On to LARP4B (from UniProt Q92615 1-738), for which the binding result in assay [2] was “binds”.

B1: LARP7 (protein, UniProt Q4G0J3 1-582)
chain: METESGNQEKVMEEESTEKKKEVEKKKRSRVKQVLADIAKQVDFWFGDANLHKDRFLREQIEKSRDGYVDISLLVSFNKMKKLTTDGKLIARALRSSAVVELDLEGTRIRRKKPLGERPKDEDERTVYVELLPKNVNHSWIERVFGKCGNVVYISIPHYKSTGDPKGFAFVEFETKEQAAKAIEFLNNPPEEAPRKPGIFPKTVKNKPIPALRVVEEKKKKKKKKGRMKKEDNIQAKEENMDTSNTSISKMKRSRPTSEGSDIESTEPQKQCSKKKKKRDRVEASSLPEVRTGKRKRSSSEDAESLAPRSKVKKIIQKDIIKEASEASKENRDIEISTEEEKDTGDLKDSSLLKTKRKHKKKHKERHKMGEEVIPLRVLSKSEWMDLKKEYLALQKASMASLKKTISQIKSESEMETDSGVPQNTGMKNEKTANREECRTQEKVNATGPQFVSGVIVKIISTEPLPGRKQVRDTLAAISEVLYVDLLEGDTECHARFKTPEDAQAVINAYTEINKKHCWKLEILSGDHEQRYWQKILVDRQAKLNQPREKKRGTEKLITKAEKIRLAKTQQASKHIRFSEYD
Consider B1, for which, in assay [2], the binding entry is given as “binds”.
